For this test, the target named is T1, Myristoylated alanine-rich C kinase substrate (MARCKS) (mouse (endogenous in E18.5 mouse brain)) (UniProt P26645).
T1 sequence: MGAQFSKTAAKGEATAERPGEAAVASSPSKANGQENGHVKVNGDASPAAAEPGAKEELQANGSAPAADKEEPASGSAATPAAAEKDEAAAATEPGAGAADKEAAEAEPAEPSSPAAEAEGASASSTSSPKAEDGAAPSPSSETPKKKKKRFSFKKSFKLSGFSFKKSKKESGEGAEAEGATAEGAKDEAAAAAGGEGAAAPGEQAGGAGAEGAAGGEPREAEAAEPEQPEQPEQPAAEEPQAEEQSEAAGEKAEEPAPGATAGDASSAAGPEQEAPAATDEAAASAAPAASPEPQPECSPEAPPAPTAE
Kind of test: co-IP; MARCKS immunoprecipitated from E18.5 mouse whole-brain lysates with anti-MARCKS antibodies (SC6455) on protein A/G agarose (Pierce Crosslink IP kit, crosslinking omitted); blot for CDC42.

The chains behind the UniProt entries cited, without tags or fusion partners.
UniProt P60766: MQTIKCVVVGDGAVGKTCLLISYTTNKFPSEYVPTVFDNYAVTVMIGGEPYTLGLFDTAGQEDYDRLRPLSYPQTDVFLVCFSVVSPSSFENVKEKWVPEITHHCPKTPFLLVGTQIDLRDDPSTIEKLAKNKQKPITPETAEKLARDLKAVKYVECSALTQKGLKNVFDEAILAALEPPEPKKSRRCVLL

These are yes or no findings as the source states them, for the method shown. In cells and extracts the contact can be indirect. Some results given as binding are weak or reduced against the parent protein; the word gives no strength.

With “Cell division cycle 42 (CDC42) (from UniProt P60766 1-191)”, the binding entry is “binds”.

The record behind these values is publication PMC6125478.
